In publication PMC5542437, “Assembly and stoichiometry of the core structure of the bacterial flagellar type III export gate complex” (PLoS Biology, 2017):

What was measured:
[1] = molecular target: T1, His-St-FliP (Salmonella FliP with a hexahistidine tag inserted between Gln-22 and Leu-23) (Salmonella enterica) (UniProt P54700); test: pull-down; Ni-NTA copurification with His-FliP from SJW1368 co-expressing FlhA, FlhB, FliO, His-FliP, HA-FliQ and FliR-FLAG; membranes solubilised with 1% LMNG; immunoblot (lane L of Fig 6B)
T1 sequence: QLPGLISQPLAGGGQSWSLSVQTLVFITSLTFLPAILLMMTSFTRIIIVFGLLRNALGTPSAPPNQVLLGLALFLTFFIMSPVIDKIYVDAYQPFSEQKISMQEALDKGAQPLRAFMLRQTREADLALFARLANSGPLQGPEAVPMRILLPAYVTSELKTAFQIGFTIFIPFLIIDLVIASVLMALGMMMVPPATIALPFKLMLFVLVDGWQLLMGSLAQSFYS

[2] = molecular target: T1, His-St-FliP (Salmonella FliP with a hexahistidine tag inserted between Gln-22 and Leu-23) (Salmonella enterica); test: SEC; Ni-purified His-FliP or FliO/His-FliP complexes (wild type and mutants) on Superdex 200 10/300; 20 mM Tris-HCl pH 8.0, 300 mM NaCl, 2 mM EDTA, 5% glycerol, 0.1% DDM; both purified
[3] = molecular target: T2, FliG-His (Salmonella enterica) (UniProt P0A1J9); test: pull-down; Ni affinity copurification with FliG-His from SJW1368 co-expressing FlhA, FlhB, FliF, FliG-His, FliO, FliP, HA-FliQ and FliR-FLAG; membranes solubilised with 1% DDM
T2 sequence: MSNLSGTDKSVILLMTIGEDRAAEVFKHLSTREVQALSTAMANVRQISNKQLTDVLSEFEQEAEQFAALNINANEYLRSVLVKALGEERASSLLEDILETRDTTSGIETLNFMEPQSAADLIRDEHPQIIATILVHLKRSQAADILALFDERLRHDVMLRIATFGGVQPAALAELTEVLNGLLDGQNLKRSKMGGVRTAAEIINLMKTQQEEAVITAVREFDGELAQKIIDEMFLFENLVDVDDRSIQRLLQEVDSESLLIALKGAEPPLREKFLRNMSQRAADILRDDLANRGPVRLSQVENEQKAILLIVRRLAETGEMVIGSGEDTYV

[4] = molecular target: T1, His-St-FliP (Salmonella FliP with a hexahistidine tag inserted between Gln-22 and Leu-23) (Salmonella enterica); test: SEC; Ni-purified material from LMNG-solubilised membranes on Superdex 200 10/300; 20 mM Tris-HCl pH 8.0, 150 mM NaCl, 2 mM EDTA, 5% glycerol, 0.01% LMNG; fractions immunoblotted; both purified
[5] = molecular target: T3, FliR-FLAG (Salmonella enterica) (UniProt P54702); test: pull-down; copurification from Salmonella SJW1368 co-expressing His-FliP with other export gate proteins; membranes solubilised with 1% DDM; Ni affinity, then anti-FLAG M2 affinity (eluted with FLAG peptide), then SEC on Superdex 200 10/300; SDS-PAGE with CBB
T3 sequence: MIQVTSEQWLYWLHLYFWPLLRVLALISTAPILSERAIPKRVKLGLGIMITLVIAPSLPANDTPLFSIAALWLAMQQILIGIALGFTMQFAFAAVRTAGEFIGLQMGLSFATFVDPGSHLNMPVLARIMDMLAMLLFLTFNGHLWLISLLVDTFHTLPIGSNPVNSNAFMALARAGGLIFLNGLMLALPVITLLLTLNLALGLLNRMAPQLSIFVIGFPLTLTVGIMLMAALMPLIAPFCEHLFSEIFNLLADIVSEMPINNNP

[6] = molecular target: T1, His-St-FliP (Salmonella FliP with a hexahistidine tag inserted between Gln-22 and Leu-23) (Salmonella enterica); test: as above
[7] = molecular target: T1, His-St-FliP (Salmonella FliP with a hexahistidine tag inserted between Gln-22 and Leu-23) (Salmonella enterica); test: negative-stain electron microscopy with 2D class averaging; purified SEC peak fractions, 1.0% uranyl acetate, 100 kV; autocorrelation analysis for the rotational symmetry of the FliP ring; both purified
[8] = molecular target: T1, His-St-FliP (Salmonella FliP with a hexahistidine tag inserted between Gln-22 and Leu-23) (Salmonella enterica); test: pull-down; Ni-NTA copurification; His-FliP (wild type or mutant) co-expressed with FliO in Salmonella SJW1368; membranes solubilised with 1% DDM; 50 mM Tris-HCl pH 8.0, 300 mM NaCl, 5% glycerol, 20 mM imidazole, 0.1% DDM wash; 50-400 mM imidazole gradient; SDS-PAGE with CBB

FliO (Salmonella), co-expressed in Salmonella SJW1368 (from UniProt A0A2X4T7I8)
binding [1]: binds | binding [2]: binds | binding [3]: no binding | binding [4]: binds weakly | binding [5]: binds | binding [6]: binds | binding [7]: binds | binding [8]: binds

No constants are given. Whether binding was seen depends on the method and setting. For some assays here: Binding can be weak; no strength is given. Where a sequence is shown, tags or fusion partners need not be part of it. For some assays here: In cells and extracts the contact can be indirect.
